Measurements from publication doi:10.1101/2023.04.25.538284 (bioRxiv, 2023).
Results are given in words; binding and its absence hold for the method and conditions named. Binding seen in cells or lysates may run through a third protein. Some results given as binding are weak or reduced against the parent protein; the word gives no strength. Where a sequence is shown, tags or fusion partners need not be part of it.

Experiments:
Test in all cases: split reporter
[1] = molecular target: T1, SnRK2.8-nLUC (Arabidopsis thaliana) (UniProt Q9M9E9)
T1 sequence: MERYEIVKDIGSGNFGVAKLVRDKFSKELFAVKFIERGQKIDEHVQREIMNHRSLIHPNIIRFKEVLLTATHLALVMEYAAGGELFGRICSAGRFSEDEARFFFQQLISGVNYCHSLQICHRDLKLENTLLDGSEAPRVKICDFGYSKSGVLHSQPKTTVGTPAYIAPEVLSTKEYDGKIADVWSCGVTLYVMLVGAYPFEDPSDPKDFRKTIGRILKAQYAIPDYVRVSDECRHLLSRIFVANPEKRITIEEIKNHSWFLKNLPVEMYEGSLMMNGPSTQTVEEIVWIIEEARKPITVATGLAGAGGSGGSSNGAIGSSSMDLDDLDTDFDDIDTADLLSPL

[2] = molecular target: T2, SnRK2.3-nLUC (Arabidopsis thaliana) (UniProt Q39193)
T2 sequence: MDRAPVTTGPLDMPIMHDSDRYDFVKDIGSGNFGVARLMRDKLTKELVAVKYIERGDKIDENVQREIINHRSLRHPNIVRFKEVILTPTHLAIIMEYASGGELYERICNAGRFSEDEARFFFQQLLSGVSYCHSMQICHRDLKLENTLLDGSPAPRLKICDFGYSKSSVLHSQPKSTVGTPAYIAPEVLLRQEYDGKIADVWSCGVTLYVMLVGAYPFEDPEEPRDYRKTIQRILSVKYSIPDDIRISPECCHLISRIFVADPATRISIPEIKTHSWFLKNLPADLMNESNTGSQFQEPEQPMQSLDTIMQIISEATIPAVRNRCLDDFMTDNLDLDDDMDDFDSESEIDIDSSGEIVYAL

[3] = molecular target: T3, SnRK2.5-nLUC (Arabidopsis thaliana) (UniProt Q9FFP9)
T3 sequence: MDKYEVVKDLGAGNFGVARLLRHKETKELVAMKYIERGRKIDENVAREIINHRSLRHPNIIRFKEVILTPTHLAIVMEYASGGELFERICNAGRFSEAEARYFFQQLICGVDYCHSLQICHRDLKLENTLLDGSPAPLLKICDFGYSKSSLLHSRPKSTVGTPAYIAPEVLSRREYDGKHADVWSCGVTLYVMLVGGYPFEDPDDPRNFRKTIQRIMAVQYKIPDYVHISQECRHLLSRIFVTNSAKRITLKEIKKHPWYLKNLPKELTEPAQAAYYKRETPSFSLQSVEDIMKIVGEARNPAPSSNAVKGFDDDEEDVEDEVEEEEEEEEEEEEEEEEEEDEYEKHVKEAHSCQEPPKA

[4] = molecular target: T4, SnRK2.4-nLUC (Arabidopsis thaliana) (UniProt P43291)
T4 sequence: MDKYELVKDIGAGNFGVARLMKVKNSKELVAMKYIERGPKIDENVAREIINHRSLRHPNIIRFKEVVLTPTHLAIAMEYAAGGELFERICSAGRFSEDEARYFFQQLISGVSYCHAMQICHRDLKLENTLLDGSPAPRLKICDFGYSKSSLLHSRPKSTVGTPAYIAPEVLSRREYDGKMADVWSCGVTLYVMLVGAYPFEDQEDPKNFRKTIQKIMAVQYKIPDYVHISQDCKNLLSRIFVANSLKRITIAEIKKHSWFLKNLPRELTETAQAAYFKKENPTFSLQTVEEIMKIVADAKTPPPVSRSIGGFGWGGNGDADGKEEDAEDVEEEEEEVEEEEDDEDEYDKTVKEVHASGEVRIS

B1: SIZ1-cLUC (enzyme, UniProt Q680Q4-3 1-873)
chain: MDLEANCKEKLSYFRIKELKDVLTQLGLSKQGKKQELVDRILTLLSDEQAARLLSKKNTVAKEAVAKLVDDTYRKMQVSGASDLASKGQVSSDTSNLKVKGEPEDPFQPEIKVRCVCGNSLETDSMIQCEDPRCHVWQHVGCVILPDKPMDGNPPLPESFYCEICRLTRADPFWVTVAHPLSPVRLTATTIPNDGASTMQSVERTFQITRADKDLLAKPEYDVQAWCMLLNDKVLFRMQWPQYADLQVNGVPVRAINRPGGQLLGVNGRDDGPIITSCIRDGVNRISLSGGDVRIFCFGVRLVKRRTLQQVLNLIPEEGKGETFEDALARVRRCIGGGGGDDNADSDSDIEVVADFFGVNLRCPMSGSRIKVAGRFLPCVHMGCFDLDVFVELNQRSRKWQCPICLKNYSVEHVIVDPYFNRITSKMKHCDEEVTEIEVKPDGSWRVKFKRESERRELGELSQWHAPDGSLCPSAVDIKRKMEMLPVKQEGYSDGPAPLKLGIRKNRNGIWEVSKPNTNGLSSSNRQEKVGYQEKNIIPMSSSATGSGRDGDDASVNQDAIGTFDFVANGMELDSISMNVDSGYNFPDRNQSGEGGNNEVIVLSDSDDENDLVITPGPAYSGCQTDGGLTFPLNPPGIINSYNEDPHSIAGGSSGLGLFNDDDEFDTPLWSFPSETPEAPGFQLFRSDADVSGGLVGLHHHSPLNCSPEINGGYTMAPETSMASVPVVPGSTGRSEANDGLVDNPLAFGRDDPSLQIFLPTKPDASAQSGFKNQADMSNGLRSEDWISLRLGDSASGNHGDPATTNGINSSHQMSTREGSMDTTTETASLLLGMNDSRQDKAKKQRSDNPFSFPRQKRSVRPRMYLSIDSDSE
- binding [1]: binds
- binding [2]: binds weakly
- binding [3]: no binding
- binding [4]: binds
